Reference: publication doi:10.1101/2022.12.23.521429v4, “Structural perspective on the design of selective DYRK1B inhibitors” (biorxiv, 2025)

Experiments:
[1] = target: T1, DYRK1B kinase domain (78-442) (Homo sapiens, UniProt Q9Y463); test: ADP-Glo kinase activity assay; format: biochemical
T1 construct: kinase domain 78-442, C-terminal TEV site and His-tag (ENLYFQ*GHHHHHH), His-tag cleaved by TEV; E. coli LOBSTR; Tyr273 autophosphorylated

[2] = target: T1, DYRK1B kinase domain (78-442); test: isothermal titration calorimetry; settings: read-out: binding affinity

`COc1cc(N2CCN(C)CC2)ccc1Nc1nccc(-c2cn(C)c3cnccc23)n1` [AZ191] gave an IC50 [1] of 66 nM and a Kd [2] of 28 nM.
